Results taken from the supplement of paper PMC10849652.
Some of the results follow.

The chains behind the UniProt entries cited, without tags or fusion partners. Where a name states a change or a piece, a line headed by the entry shows the natural chain unless it says otherwise.
UniProt P60602: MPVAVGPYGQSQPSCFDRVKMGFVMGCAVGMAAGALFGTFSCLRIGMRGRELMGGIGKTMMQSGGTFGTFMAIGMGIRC
UniProt P51812, whole entry, looked up: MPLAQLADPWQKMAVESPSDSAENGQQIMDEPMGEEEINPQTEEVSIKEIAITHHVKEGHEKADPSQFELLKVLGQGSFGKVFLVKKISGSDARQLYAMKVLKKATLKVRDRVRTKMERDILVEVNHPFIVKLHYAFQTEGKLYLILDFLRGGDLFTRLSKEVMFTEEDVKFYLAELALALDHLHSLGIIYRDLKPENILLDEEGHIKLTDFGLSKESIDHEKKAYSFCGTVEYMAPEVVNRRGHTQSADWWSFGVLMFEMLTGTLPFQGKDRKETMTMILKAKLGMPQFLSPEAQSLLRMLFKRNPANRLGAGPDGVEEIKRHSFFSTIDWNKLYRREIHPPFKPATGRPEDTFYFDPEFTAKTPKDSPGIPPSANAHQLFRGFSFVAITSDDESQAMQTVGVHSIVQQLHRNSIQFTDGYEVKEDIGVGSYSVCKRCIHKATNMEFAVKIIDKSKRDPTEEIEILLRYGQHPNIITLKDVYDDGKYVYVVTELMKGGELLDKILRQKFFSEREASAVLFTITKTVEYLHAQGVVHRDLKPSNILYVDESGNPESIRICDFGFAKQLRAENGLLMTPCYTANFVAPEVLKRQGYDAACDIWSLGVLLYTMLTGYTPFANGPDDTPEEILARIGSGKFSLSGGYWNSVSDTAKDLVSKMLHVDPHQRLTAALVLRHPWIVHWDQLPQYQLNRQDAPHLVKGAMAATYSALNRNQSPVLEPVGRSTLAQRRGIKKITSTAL
UniProt Q9NQG5: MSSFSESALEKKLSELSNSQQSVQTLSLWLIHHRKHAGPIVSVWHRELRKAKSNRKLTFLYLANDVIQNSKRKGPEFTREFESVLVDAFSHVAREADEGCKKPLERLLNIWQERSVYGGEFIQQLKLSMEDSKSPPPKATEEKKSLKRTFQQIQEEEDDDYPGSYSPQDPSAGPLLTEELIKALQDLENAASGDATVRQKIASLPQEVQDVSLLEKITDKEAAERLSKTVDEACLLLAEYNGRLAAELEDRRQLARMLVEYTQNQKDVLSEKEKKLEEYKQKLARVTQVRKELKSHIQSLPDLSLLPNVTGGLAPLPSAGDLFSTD
UniProt P78317: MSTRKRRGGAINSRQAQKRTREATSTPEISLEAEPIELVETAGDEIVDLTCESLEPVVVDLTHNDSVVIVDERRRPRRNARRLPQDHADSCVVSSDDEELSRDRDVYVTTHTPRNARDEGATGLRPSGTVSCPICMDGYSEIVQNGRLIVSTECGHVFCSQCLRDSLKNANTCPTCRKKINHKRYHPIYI
UniProt P08922: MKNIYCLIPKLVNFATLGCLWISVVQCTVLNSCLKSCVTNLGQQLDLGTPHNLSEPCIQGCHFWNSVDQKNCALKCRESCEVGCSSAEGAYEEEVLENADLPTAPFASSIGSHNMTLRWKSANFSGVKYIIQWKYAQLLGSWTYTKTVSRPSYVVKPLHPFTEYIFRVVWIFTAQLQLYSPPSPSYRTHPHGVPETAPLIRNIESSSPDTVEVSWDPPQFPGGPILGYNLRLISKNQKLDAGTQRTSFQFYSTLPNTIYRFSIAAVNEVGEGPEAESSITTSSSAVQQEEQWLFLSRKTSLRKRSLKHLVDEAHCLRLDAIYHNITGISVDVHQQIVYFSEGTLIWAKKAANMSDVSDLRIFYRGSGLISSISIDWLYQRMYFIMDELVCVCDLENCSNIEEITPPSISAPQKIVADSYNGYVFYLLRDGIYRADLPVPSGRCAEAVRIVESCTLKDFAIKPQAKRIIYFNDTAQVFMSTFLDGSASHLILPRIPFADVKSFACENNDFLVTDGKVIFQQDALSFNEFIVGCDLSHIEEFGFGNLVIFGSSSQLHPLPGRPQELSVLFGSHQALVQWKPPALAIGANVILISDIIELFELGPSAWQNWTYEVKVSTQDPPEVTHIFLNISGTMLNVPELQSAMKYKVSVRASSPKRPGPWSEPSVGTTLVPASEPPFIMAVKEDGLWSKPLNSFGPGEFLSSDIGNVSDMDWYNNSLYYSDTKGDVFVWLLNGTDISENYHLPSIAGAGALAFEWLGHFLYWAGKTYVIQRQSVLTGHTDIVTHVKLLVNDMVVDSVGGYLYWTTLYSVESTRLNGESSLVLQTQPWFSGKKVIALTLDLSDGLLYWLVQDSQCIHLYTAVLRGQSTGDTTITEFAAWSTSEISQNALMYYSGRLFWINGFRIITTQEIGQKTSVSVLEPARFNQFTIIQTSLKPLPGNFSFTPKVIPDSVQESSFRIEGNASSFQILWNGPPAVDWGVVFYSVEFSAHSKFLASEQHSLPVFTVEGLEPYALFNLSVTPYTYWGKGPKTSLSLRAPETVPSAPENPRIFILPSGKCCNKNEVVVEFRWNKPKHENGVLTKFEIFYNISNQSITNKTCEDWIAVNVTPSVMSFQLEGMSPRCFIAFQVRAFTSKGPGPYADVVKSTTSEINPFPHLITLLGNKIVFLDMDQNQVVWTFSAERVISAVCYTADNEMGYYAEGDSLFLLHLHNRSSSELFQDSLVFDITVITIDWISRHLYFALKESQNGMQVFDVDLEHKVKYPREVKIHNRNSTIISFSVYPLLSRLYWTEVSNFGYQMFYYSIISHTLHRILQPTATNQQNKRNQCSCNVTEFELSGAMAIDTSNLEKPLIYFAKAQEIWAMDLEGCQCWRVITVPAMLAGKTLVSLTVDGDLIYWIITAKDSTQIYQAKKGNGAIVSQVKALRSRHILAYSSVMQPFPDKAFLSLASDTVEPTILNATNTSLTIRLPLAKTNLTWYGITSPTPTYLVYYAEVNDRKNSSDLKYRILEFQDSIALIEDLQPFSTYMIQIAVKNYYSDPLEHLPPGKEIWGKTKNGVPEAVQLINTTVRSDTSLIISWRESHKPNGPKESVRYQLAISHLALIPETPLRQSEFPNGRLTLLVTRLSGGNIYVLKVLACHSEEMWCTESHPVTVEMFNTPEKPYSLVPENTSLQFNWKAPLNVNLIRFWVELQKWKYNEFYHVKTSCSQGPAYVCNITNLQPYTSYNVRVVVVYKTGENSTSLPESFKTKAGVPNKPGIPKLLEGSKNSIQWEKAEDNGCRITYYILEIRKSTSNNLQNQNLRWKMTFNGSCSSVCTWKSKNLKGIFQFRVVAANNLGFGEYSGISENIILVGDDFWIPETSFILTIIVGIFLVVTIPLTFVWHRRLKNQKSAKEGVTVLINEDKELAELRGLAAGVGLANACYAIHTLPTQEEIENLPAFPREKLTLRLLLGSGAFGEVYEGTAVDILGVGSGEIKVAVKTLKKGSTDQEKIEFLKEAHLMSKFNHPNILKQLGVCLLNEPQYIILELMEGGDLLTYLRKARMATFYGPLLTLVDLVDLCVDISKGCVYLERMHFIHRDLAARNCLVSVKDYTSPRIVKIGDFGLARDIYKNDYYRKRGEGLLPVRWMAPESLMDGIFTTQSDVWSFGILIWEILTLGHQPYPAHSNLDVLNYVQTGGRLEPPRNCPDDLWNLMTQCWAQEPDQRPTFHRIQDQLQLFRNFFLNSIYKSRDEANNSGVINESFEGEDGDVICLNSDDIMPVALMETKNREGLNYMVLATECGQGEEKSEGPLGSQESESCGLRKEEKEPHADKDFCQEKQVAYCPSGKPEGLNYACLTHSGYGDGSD
UniProt Q15287: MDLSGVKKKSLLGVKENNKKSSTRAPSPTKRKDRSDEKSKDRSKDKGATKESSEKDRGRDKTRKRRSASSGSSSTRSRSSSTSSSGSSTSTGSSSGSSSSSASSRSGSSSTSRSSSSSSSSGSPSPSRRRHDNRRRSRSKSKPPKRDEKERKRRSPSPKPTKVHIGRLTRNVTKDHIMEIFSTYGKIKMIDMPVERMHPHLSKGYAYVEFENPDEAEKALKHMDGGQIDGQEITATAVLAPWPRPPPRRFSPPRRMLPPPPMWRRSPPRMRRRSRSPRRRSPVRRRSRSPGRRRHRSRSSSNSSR
UniProt Q5M7Z0: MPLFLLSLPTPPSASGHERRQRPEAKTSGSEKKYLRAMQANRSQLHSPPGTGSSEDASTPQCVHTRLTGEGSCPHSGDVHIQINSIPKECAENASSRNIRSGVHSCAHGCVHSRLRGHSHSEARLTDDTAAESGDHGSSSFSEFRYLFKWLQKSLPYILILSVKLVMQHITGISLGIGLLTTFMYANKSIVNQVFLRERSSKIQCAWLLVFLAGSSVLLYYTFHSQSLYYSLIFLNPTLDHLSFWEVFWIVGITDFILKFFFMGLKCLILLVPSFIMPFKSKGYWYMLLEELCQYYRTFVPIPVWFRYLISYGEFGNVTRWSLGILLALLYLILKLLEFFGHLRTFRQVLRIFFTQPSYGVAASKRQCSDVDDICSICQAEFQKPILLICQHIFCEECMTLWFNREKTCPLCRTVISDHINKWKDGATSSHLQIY
UniProt Q5VZM2, whole entry, looked up: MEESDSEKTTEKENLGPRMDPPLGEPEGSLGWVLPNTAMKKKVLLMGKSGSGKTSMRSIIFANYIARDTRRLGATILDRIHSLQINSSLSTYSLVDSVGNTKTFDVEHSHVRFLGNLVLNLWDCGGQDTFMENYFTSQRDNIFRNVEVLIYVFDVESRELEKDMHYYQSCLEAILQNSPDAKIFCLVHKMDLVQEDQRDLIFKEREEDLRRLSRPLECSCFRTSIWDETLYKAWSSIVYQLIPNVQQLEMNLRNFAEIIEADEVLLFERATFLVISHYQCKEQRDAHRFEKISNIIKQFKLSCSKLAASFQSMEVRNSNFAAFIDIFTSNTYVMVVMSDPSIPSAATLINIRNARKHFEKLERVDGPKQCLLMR
UniProt Q86UA6: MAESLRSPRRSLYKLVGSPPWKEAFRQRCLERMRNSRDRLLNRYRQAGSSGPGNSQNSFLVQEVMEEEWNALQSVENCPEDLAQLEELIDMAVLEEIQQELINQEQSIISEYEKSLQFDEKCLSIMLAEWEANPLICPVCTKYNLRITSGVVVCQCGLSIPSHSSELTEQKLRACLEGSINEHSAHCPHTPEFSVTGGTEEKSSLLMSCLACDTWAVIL
UniProt Q96P16: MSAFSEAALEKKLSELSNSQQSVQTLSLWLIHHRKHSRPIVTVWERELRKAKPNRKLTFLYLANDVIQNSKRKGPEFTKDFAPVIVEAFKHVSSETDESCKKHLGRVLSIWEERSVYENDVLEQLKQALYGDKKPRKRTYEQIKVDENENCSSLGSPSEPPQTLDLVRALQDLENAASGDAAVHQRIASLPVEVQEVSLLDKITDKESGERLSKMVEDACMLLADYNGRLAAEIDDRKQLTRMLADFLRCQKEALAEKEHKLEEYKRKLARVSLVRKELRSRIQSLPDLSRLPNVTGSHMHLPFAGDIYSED
UniProt Q9NYV6: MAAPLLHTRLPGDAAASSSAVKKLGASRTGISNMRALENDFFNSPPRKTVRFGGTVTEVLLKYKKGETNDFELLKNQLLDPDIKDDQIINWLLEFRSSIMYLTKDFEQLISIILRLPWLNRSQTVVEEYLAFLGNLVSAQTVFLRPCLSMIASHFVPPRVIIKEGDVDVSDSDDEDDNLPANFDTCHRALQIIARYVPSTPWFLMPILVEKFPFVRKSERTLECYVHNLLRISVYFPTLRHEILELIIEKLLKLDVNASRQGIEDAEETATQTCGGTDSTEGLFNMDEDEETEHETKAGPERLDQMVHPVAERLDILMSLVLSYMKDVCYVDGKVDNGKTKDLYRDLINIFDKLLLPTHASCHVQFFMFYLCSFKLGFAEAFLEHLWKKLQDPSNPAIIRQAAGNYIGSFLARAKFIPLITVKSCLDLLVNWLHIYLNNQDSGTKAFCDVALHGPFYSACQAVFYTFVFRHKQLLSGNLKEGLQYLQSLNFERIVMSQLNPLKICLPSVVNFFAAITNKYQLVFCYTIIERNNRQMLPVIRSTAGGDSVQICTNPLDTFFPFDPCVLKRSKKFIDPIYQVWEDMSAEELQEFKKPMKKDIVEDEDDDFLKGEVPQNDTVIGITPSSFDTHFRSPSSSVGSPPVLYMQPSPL
UniProt Q8IXW5, whole entry, looked up: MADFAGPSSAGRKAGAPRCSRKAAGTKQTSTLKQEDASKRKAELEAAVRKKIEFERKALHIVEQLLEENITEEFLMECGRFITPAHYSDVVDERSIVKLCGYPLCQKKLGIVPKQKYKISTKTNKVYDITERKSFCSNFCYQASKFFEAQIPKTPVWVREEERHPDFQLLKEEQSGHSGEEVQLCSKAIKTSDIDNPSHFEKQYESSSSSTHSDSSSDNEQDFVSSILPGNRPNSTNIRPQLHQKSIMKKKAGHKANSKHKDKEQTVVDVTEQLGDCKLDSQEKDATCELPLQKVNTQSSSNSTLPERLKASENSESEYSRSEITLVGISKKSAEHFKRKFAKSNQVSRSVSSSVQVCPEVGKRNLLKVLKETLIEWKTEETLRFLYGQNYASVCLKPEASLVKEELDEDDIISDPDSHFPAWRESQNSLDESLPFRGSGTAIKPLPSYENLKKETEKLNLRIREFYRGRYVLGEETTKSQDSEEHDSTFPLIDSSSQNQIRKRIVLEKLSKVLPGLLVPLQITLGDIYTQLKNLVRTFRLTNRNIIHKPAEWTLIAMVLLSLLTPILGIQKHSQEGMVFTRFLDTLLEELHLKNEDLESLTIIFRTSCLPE

Compound: CC[C@H](C)N1C=C(C2=C(C=C(C=C21)C3=CN=C(C=C3)N4CCNCC4)C(=O)NCC5=C(C=C(NC5=O)C)C)C
Experiment: log2 fold change, soluble protein after heating vs DMSO (PISA); higher = thermal stabilisation; K562 cells, 10 uM, 30 min; active = over 0.2 and 3.5 SD of the protein, either way, in both replicates (recomputed)
Summary of the method: (§1)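 Aliquots of K562 cells (2×10^6 cells/mL) treated with 10 μM compound for 30 min were heated for 3 min over 48°C-58°C. After pooling and extraction in PBS with 0.5% NP-40 at 4°C, soluble protein from a 21,000xg, 90 min spin was quantified by TMTpro 16plex LC-MS/MS with channel sums equalised. Thermal stability is expressed against control samples, from duplicates, as a log2 fold change.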

log2 fold change, inactive:
RPL7L1 (UniProt Q6DKI1) -0.103
ROMO1 (UniProt P60602) -0.06
RPS6KA3 (UniProt P51812) 0.065
RPRD1B (UniProt Q9NQG5) 0.077
RPS25 (UniProt P62851) 0.012
RPS5 (UniProt P46782) 0.065
RNF4 (UniProt P78317) -0.018
RPS19 (UniProt M0R2L9) -0.256
RNF31 (UniProt Q96EP0) 0.147
RPS7, A0A2R8Y623 0.171
RPUSD3 (UniProt Q6P087) -0.004
ROS1 (UniProt P08922) -0.234
RPS3A (UniProt P61247) 0.02
RPS20 isoform 2 (UniProt P60866) -0.009
RPS14 (UniProt P62263) 0.023
RNPS1 (UniProt Q15287) 0.049
RPL37 (UniProt P61927) -0.036
RPP30 (UniProt Q5VU11) -0.139
RNFT1 (UniProt Q5M7Z0) -0.048
RRAGB (UniProt Q5VZM2) -0.017
ROCK2 (UniProt O75116) -0.009

Compound: CC[C@H](C)[C@@H](C(=O)N[C@@H]([C@@H](C)O)C(=O)N[C@@H](CC(C)C)C(=O)[C@]1(CO1)C)NC(=O)[C@H]([C@@H](C)CC)N(C)C(=O)C [epoxomicin]
Experiment: as above
Summary of the method: as §1

log2 fold change, inactive:
RPL7L1 (UniProt Q6DKI1) -0.129
RPAIN isoform 8 (UniProt Q86UA6) -0.118
ROMO1 (UniProt P60602) -0.178
RPS6KA3 (UniProt P51812) 0.027
RPRD1B (UniProt Q9NQG5) 0.075
RPS25 (UniProt P62851) -0.172
RPRD1A (UniProt Q96P16) 0.15
RPS5 (UniProt P46782) -0.079
RNF4 (UniProt P78317) 0.158
RNF31 (UniProt Q96EP0) 0.022
RPS3A (UniProt P61247) -0.124
RPS6KB2 (UniProt Q9UBS0) -0.02
RPGR (UniProt Q92834) 0.018
RPL22L1 (UniProt Q6P5R6) 0.066
RRN3 (UniProt Q9NYV6) -0.124
RPLP0 (UniProt F8VWV4) -0.171
RPUSD4 (UniProt Q96CM3) -0.068
RPS6KA5 (UniProt O75582) 0.048
RREB1 isoform 2 (UniProt Q92766) 0.046
RPS20 isoform 2 (UniProt P60866) -0.103
RPS14 (UniProt P62263) -0.031
RNPS1 (UniProt Q15287) -0.126
RPAP2 (UniProt Q8IXW5) -0.068
RNFT1 (UniProt Q5M7Z0) -0.023
RPRD2 (UniProt Q5VT52) 0.004
RRAGB (UniProt Q5VZM2) 0.047
ROCK2 (UniProt O75116) 0.063

Compound: CCn1c(C(=O)N(C2CC2)C2CC2)cc2c3c(ncn3C)c(Nc3cc(C)n(C)n3)nc21
Experiment: as above
Summary of the method: as §1

log2 fold change, inactive:
RPRD1A (UniProt Q96P16) -0.034
RNF4 (UniProt P78317) -0.682
RNF31 (UniProt Q96EP0) -0.115
RPS7, A0A2R8Y623 0.007
ROS1 (UniProt P08922) -0.172
RPS6KB2 (UniProt Q9UBS0) -0.436
RPL22L1 (UniProt Q6P5R6) -0.023
RRN3 (UniProt Q9NYV6) -0.011
RREB1 isoform 2 (UniProt Q92766) 0.037
RPF2 (UniProt Q9H7B2) -0.314
RPL37 (UniProt P61927) 0.067
RPP30 (UniProt Q5VU11) 0.153
RPAP2 (UniProt Q8IXW5) 0.051
RNFT1 (UniProt Q5M7Z0) 0.109
RPRD2 (UniProt Q5VT52) -0.269
RNF40 (UniProt O75150) 0.182
RRP1 (UniProt P56182) -0.044

Compound: CCn1cc(-c2ccnc3[nH]c(-c4cccc(CN(C)C)c4)cc23)c(-c2ccc(NC(=O)N(C)C)cc2)n1
Experiment: as above
Summary of the method: as §1

log2 fold change, inactive:
RNF26 (UniProt Q9BY78) 0.077
RPL7L1 (UniProt Q6DKI1) -0.32
RPS3 (UniProt E9PJN9) -0.125
ROMO1 (UniProt P60602) -0.023
RPS6KA3 (UniProt P51812) -0.049
RPRD1B (UniProt Q9NQG5) -0.005
RPS25 (UniProt P62851) 0.134
RPRD1A (UniProt Q96P16) -0.013
RPS5 (UniProt P46782) 0.059
RNF31 (UniProt Q96EP0) -0.14
RPUSD3 (UniProt Q6P087) 0.113
ROS1 (UniProt P08922) 0.134
RPS3A (UniProt P61247) 0.114
ROGDI (UniProt Q9GZN7) 0.046
RRN3 (UniProt Q9NYV6) -0.073
RPUSD4 (UniProt Q96CM3) -0.037
RREB1 isoform 2 (UniProt Q92766) 0.057
RPS20 isoform 2 (UniProt P60866) 0.065
RPF2 (UniProt Q9H7B2) -0.195
RPS14 (UniProt P62263) 0.122
RNPS1 (UniProt Q15287) -0.008
RPL37 (UniProt P61927) 0.23
RPP30 (UniProt Q5VU11) 0.225
RPAP2 (UniProt Q8IXW5) 0.01
RNFT1 (UniProt Q5M7Z0) 0.075
RRAGB (UniProt Q5VZM2) -0.041
ROCK2 (UniProt O75116) -0.178
RRP1 (UniProt P56182) -0.277
